No constants are given. Whether binding was seen depends on the method and setting. Binding seen in cells or lysates may run through a third protein. A result given as binding can be weak or reduced; the word gives no strength. Sequences can lack the tags named with a protein.
What was measured:
Assay in all cases: co-IP; ERECTA-HA and PICALM-GFP co-expressed in Arabidopsis protoplasts; GFP-Trap magnetic agarose, 4 °C, 1 hr, buffer with 150 mM NaCl and 1 % Triton X-100; immunoblot
[1] = target: PICALM4A-GFP (Arabidopsis thaliana)
[2] = target: PICALM4B-GFP (Arabidopsis thaliana)
[3] = target: PICALM3-GFP (Arabidopsis thaliana)

Measured: binding

B1: ERECTA-HA (receptor, UniProt Q42371 25-976)
chain: EEGATLLEIKKSFKDVNNVLYDWTTSPSSDYCVWRGVSCENVTFNVVALNLSDLNLDGEISPAIGDLKSLLSIDLRGNRLSGQIPDEIGDCSSLQNLDLSFNELSGDIPFSISKLKQLEQLILKNNQLIGPIPSTLSQIPNLKILDLAQNKLSGEIPRLIYWNEVLQYLGLRGNNLVGNISPDLCQLTGLWYFDVRNNSLTGSIPETIGNCTAFQVLDLSYNQLTGEIPFDIGFLQVATLSLQGNQLSGKIPSVIGLMQALAVLDLSGNLLSGSIPPILGNLTFTEKLYLHSNKLTGSIPPELGNMSKLHYLELNDNHLTGHIPPELGKLTDLFDLNVANNDLEGPIPDHLSSCTNLNSLNVHGNKFSGTIPRAFQKLESMTYLNLSSNNIKGPIPVELSRIGNLDTLDLSNNKINGIIPSSLGDLEHLLKMNLSRNHITGVVPGDFGNLRSIMEIDLSNNDISGPIPEELNQLQNIILLRLENNNLTGNVGSLANCLSLTVLNVSHNNLVGDIPKNNNFSRFSPDSFIGNPGLCGSWLNSPCHDSRRTVRVSISRAAILGIAIGGLVILLMVLIAACRPHNPPPFLDGSLDKPVTYSTPKLVILHMNMALHVYEDIMRMTENLSEKYIIGHGASSTVYKCVLKNCKPVAIKRLYSHNPQSMKQFETELEMLSSIKHRNLVSLQAYSLSHLGSLLFYDYLENGSLWDLLHGPTKKKTLDWDTRLKIAYGAAQGLAYLHHDCSPRIIHRDVKSSNILLDKDLEARLTDFGIAKSLCVSKSHTSTYVMGTIGYIDPEYARTSRLTEKSDVYSYGIVLLELLTRRKAVDDESNLHHLIMSKTGNNEVMEMADPDITSTCKDLGVVKKVFQLALLCTKRQPNDRPTMHQVTRVLGSFMLSEQPPAATDTSATLAGSCYVDEYANLKTPHSVNCSSMSASDAQLFLRFGQVISQNSE
binds: [1] | [2] | [3]

— publication doi:10.1101/2025.07.20.665823
